Data as given in PubChem BioAssay AID1259405 (NCATS, 2018).
Assay: 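Mouse-designed siRNAs used to find CHO productivity engineering targets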 (primary screen). Cells: Chinese hamster CHO-K1 ovary cells with stable secreted eGFP expression. Knock-down reagent: single siRNA against mouse genes, 0.8 pmol siRNA per well (2 µl of 400 nM stock). Time to read-out: 3 days. Measurement: 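Percent of the per-plate non-targeting control median for intracellular GFP per well by laser scanning cytometry and for cell viability by ATP luminescence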. Direction: GFP, % of control: higher = more GFP per well, higher productivity; viability (ATP), % of control: higher = more viable cells (more ATP). Rule for the call: 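Called active when intracellular GFP, relative to negative control, is at or above 120%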.
In all, the deposit lists about 50,000 reagents; shown is a random part of them. About 4,000 of them (8%) count as active. 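Mouse siRNA library applied to hamster cells; one well for each siRNA.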 Unmarked entries are inactive. Reagents against one gene are numbered here.

target	siRNA no.	GFP, % of control	viability (ATP), % of control
Lce1f (GeneID 67828)	1	175 (active)	111
Lce1f (GeneID 67828)	2	148 (active)	112
Lce1f (GeneID 67828)	3	91.7	62.4
Whrn (GeneID 73750)	1	41.6	38.4
Whrn (GeneID 73750)	2	86.2	108
Pclo (GeneID 26875)	1	91	74.5
Pclo (GeneID 26875)	2	113	73.8
Ush1c (GeneID 72088)	1	55	65.4
Ush1c (GeneID 72088)	2	81.2	87.3
Ush1c (GeneID 72088)	3	76.1	84.1
Tor1aip2 (GeneID 240832)	1	71.2	84.2
Tor1aip2 (GeneID 240832)	2	72.4	46
Tor1aip2 (GeneID 240832)	3	54	42.4
Tor1aip2 (GeneID 240832)	4	69.6	80.8
Tor1aip2 (GeneID 240832)	5	52.4	53.9
Tor1aip2 (GeneID 240832)	6	142 (active)	62.6
Tradd (GeneID 71609)	1	66.2	62.8
Tradd (GeneID 71609)	2	40	106
Tradd (GeneID 71609)	3	106	105
Cenpn (GeneID 72155)	1	67.1	55.4
Cenpn (GeneID 72155)	2	59.3	52.8
Cenpn (GeneID 72155)	3	23.1	22.5
Tas2r134 (GeneID 387511)	1	62.4	51.4
Tas2r134 (GeneID 387511)	2	90.8	78.8
Tas2r134 (GeneID 387511)	3	69.3	68.6
Fgf10 (GeneID 14165)	1	72.9	66
Fgf10 (GeneID 14165)	2	74.2	90.1
Fgf10 (GeneID 14165)	3	68.1	64.5
Msantd3 (GeneID 66665)	1	68.8	71.2
Msantd3 (GeneID 66665)	2	95	84.4
Msantd3 (GeneID 66665)	3	108	130
Slc50a1 (GeneID 19729)	1	108	124
Slc50a1 (GeneID 19729)	2	24.3	37.6
Slc50a1 (GeneID 19729)	3	45.2	51
Krt75 (GeneID 109052)	1	39.7	62.9
Krt75 (GeneID 109052)	2	62.9	52.9
Arhgap10 (GeneID 78514)	1	154 (active)	97
Arhgap10 (GeneID 78514)	2	83.9	71.7
Arhgap10 (GeneID 78514)	3	48.5	68.5
Arhgap10 (GeneID 78514)	4	85.8	97.3
Arhgap10 (GeneID 78514)	5	73.2	101
Arhgap10 (GeneID 78514)	6	73.2	87.4
Ube2g1 (GeneID 67128)	1	73.3	79.4
Ube2g1 (GeneID 67128)	2	54	67.6
Ube2g1 (GeneID 67128)	3	99.4	132
Vmn1r225 (GeneID 171228)	1	41.6	57
Vmn1r225 (GeneID 171228)	2	85.7	83.5
Vmn1r225 (GeneID 171228)	3	73.2	65
Foxj3 (GeneID 230700)	1	88.4	26
Foxj3 (GeneID 230700)	2	64.1	60.9
Foxj3 (GeneID 230700)	3	68.9	78.5
Rnf11 (GeneID 29864)	1	67.7	61
Rnf11 (GeneID 29864)	2	56.4	62.3
Rnf11 (GeneID 29864)	3	72.6	83
Rd3 (GeneID 74023)	1	75.3	105
Rd3 (GeneID 74023)	2	102	106
Rd3 (GeneID 74023)	3	87.1	95.9
Me3 (GeneID 109264)	1	84.3	79.6
Me3 (GeneID 109264)	2	73.8	62.9
Me3 (GeneID 109264)	3	92	88.5
Or51a7 (GeneID 258248)	1	126 (active)	88.9
Or51a7 (GeneID 258248)	2	88.3	79.3
Or51a7 (GeneID 258248)	3	81.6	71.6
Bnc2 (GeneID 242509)	1	55.5	59.7
Bnc2 (GeneID 242509)	2	57.1	60.2
Bnc2 (GeneID 242509)	3	92.7	138
Palm (GeneID 18483)	1	36.3	35.4
Palm (GeneID 18483)	2	80.3	66.4
Palm (GeneID 18483)	3	110	82.2
Pik3r2 (GeneID 18709)	1	84.2	95
Pik3r2 (GeneID 18709)	2	180 (active)	90
Neu3 (GeneID 50877)	1	48.7	42.6
Neu3 (GeneID 50877)	2	79.7	70.3
Neu3 (GeneID 50877)	3	69.8	77.5
Lrfn3 (GeneID 233067)	1	89.8	40.4
Lrfn3 (GeneID 233067)	2	102	76.5
Lrfn3 (GeneID 233067)	3	58.6	66.1
Lhx3 (GeneID 16871)	1	67.4	82
Lhx3 (GeneID 16871)	2	75.1	76.6
Lhx3 (GeneID 16871)	3	41.4	59.6
Ap2a2 (GeneID 11772)	1	102	93.7
Ap2a2 (GeneID 11772)	2	55.3	85
Or11j4 (GeneID 258660)	1	51.2	44
Or11j4 (GeneID 258660)	2	92.2	92.3
Or11j4 (GeneID 258660)	3	53.2	47.6

Laid out differently: entries from further up
{"target":"Ube2g1 (GeneID 67128)","siRNA no.":2,"GFP, % of control":54,"viability (ATP), % of control":67.6}
{"target":"Ube2g1 (GeneID 67128)","siRNA no.":3,"GFP, % of control":99.4,"viability (ATP), % of control":132}
{"target":"Vmn1r225 (GeneID 171228)","siRNA no.":1,"GFP, % of control":41.6,"viability (ATP), % of control":57}
{"target":"Vmn1r225 (GeneID 171228)","siRNA no.":2,"GFP, % of control":85.7,"viability (ATP), % of control":83.5}
{"target":"Vmn1r225 (GeneID 171228)","siRNA no.":3,"GFP, % of control":73.2,"viability (ATP), % of control":65}
{"target":"Foxj3 (GeneID 230700)","siRNA no.":1,"GFP, % of control":88.4,"viability (ATP), % of control":26}
